Assay results: article PMC6108399
No constants are given. Whether binding was seen depends on the method and setting. For some assays here: In cells and extracts the contact can be indirect. Some results given as binding are weak or reduced against the parent protein; the word gives no strength. Where a sequence is shown, tags or fusion partners need not be part of it.

Amino acid sequences for entries named in this document (tags omitted).
UniProt Q9FTA2: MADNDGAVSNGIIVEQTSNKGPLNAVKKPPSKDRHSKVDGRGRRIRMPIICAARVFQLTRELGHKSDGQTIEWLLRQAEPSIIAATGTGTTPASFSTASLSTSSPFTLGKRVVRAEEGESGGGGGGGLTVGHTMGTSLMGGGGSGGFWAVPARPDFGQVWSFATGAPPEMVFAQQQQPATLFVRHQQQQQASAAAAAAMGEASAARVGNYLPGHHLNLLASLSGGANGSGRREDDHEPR

What was measured:
[1] = target: CCA1 HIKING EXPEDITION (CHE/TCP21), bait fusion from pDEST32:CHE (Arabidopsis thaliana) (UniProt Q9FTA2); test: two-hybrid; ProQuest Gateway system, pDEST32:bait + pDEST22:prey in S. cerevisiae PJ69-4a; growth on SD/-Leu/-Trp/-His with 3 mM 3AT, 30°C, 3 days
[2] = target: CHE-YFP^C (Arabidopsis thaliana) (UniProt Q9FTA2); test: split reporter; BiFC with split YFP; Agrobacterium C58C1 co-infiltrated into N. benthamiana leaves, pavement cells imaged by confocal microscopy after 3-4 days

| binding [1] | binding [2] | Binder |
| --- | --- | --- |
| binds |  | BASIC LEUCINE ZIPPER63 (bZIP63), prey fusion from pDEST22:bZIP63 (protein, UniProt B9DGI8 1-314) MEKVFSDEEISGNHHWSVNGMTSLNRSASEWAFNRFIQESSAAADDGESTTACGVSVSSPPNVPVDSEEYRAFLKSKLNLACAAVAMKRGTFIKPQDTSGRSDNGGANESEQASLASSKATPMMSSAITSGSELSGDEEEADGETNMNPTNVKRVKRMLSNRESARRSRRRKQAHLSELETQVSQLRVENSKLMKGLTDVTQTFNDASVENRVLKANIETLRAKVKMAEETVKRLTGFNPMFHNMPQIVSTVSLPSETSNSPDTTSSQVTTPEIISSGNKGKALIGCKMNRTASMRRVESLEHLQKRIRSVGDQ |
|  | binds | bZIP63-YFP^N (protein, UniProt B9DGI8 1-314) MEKVFSDEEISGNHHWSVNGMTSLNRSASEWAFNRFIQESSAAADDGESTTACGVSVSSPPNVPVDSEEYRAFLKSKLNLACAAVAMKRGTFIKPQDTSGRSDNGGANESEQASLASSKATPMMSSAITSGSELSGDEEEADGETNMNPTNVKRVKRMLSNRESARRSRRRKQAHLSELETQVSQLRVENSKLMKGLTDVTQTFNDASVENRVLKANIETLRAKVKMAEETVKRLTGFNPMFHNMPQIVSTVSLPSETSNSPDTTSSQVTTPEIISSGNKGKALIGCKMNRTASMRRVESLEHLQKRIRSVGDQ |
